From publication PMC4317497
Substitutions are numbered along the chain they refer to. No constants are given. Whether binding was seen depends on the method and setting. In cells and extracts the contact can be indirect. Some binding calls cover weakened binding; strength is not graded here. Sequences can lack the tags named with a protein.

Key:
[1] = target: T1, GST-tagged S177D-Pdlim5 (mouse) (UniProt Q8CI51); assay: pull-down; GST-Pdlim5 (WT or S177D) pull-down from U937 lysate; eluates immunoblotted with anti-Arhgef6 antibody; only the target purified
T1 sequence: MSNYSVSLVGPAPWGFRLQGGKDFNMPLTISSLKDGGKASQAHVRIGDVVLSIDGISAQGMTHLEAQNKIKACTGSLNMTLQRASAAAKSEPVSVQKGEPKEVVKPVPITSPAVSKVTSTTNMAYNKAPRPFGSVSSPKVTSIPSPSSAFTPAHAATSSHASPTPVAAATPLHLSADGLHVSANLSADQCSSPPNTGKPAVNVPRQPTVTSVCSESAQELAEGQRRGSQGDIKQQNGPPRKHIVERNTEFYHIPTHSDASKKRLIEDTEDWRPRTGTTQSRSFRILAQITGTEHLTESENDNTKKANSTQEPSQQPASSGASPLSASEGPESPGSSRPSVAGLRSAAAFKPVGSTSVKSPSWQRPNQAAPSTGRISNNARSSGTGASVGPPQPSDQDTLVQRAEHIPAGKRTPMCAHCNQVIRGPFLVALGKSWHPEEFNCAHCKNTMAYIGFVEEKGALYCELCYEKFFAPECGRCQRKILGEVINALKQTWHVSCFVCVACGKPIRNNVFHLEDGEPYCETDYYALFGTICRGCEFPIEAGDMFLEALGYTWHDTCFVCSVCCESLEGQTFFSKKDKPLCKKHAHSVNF

[2] = target: T2, GST-tagged WT-Pdlim5 (PDZ and LIM domain 5) (mouse) (UniProt Q8CI51); assay: as above
T2 sequence: T1 sequence with D177S

B1: Rho GEF 6 (Arhgef6) (protein, UniProt Q15052 1-776)
chain: MNPEEQIVTWLISLGVLESPKKTICDPEEFLKSSLKNGVVLCKLINRLMPGSVEKFCLDPQTEADCINNINDFLKGCATLQVEIFDPDDLYSGVNFSKVLSTLLAVNKATEDQLSERPCGRSSSLSAANTSQTNPQGAVSSTVSGLQRQSKTVEMTENGSHQLIVKARFNFKQTNEDELSVCKGDIIYVTRVEEGGWWEGTLNGRTGWFPSNYVREIKSSERPLSPKAVKGFETAPLTKNYYTVVLQNILDTEKEYAKELQSLLVTYLRPLQSNNNLSTVEVTSLLGNFEEVCTFQQTLCQALEECSKFPENQHKVGGCLLSLMPHFKSMYLAYCANHPSAVNVLTQHSDELEQFMENQGASSPGILILTTNLSKPFMRLEKYVTLLQELERHMEDTHPDHQDILKAIVAFKTLMGQCQDLRKRKQLELQILSEPIQAWEGEDIKNLGNVIFMSQVMVQYGACEEKEERYLMLFSNVLIMLSASPRMSGFIYQGKIPIAGTVVTRLDEIEGNDCTFEITGNTVERIVVHCNNNQDFQEWLEQLNRLIRGPASCSSLSKTSSSSCSAHSSFSSTGQPRGPLEPPQIIKPWSLSCLRPAPPLRPSAALGYKERMSYILKESSKSPKTMKKFLHKRKTERKPSEEEYVIRKSTAALEEDAQILKVIEAYCTSANFQQGHGSSTRKDSIPQVLLPEEEKLIIEETRSNGQTIMEEKSLVDTVYALKDEVRELKQENKRMKQCLEEELKSRRDLEKLVRRLLKQTDECIRGESSSKTSILP
[1]
  binding: no binding
[2]
  binding: binds
